Measured values as given in patent US11911450B2, “Method for managing pain” (UNIVERSITY OF MIAMI, priority 2017, dated 2024).
At least one compound was matched to its structure with a doubt left.

System: ITPR1 phosphorylation (pITPR1) at Ser-1755
Test: forskolin-induced ITPR1 phosphorylation (pITPR1) in transfected HEK293 cells
Type: cell-based, human
Details: western blot
Protocol: Cell culture and transfections: Human neuronal-derived (e.g., NBL), human non-neuronal derived (e.g., HEK293) cells, or dispersed rodent primary DRG cells can be used. HEK293 cells (cat #CRL-1573 ATCC Manassas, VA) were cultured in Dulbecco's modified Eagle's medium (DMEM-Glutamax cat #0566; Invitrogen) supplemented with 10% fetal bovine serum, FBS (cat #16140 ThermoFisher scientific, Waltham, MA) and 1% penicillin/streptomycin (cat #15140 ThermoFisher scientific, Waltham, MA). Cells were seeded in six-well plates at density of 1.0×10^5 cells per well. The following day, cells were transfected with plasmids via lipofectamine LTX reagent and plus (cat #15338 ThermoFisher scientific, Waltham, MA). For each transfection 2 μg of AAV2-ITR (control), AAV2-V5-Car10, or AAV2-V5-CA10 vectors was used. In various embodiments of the disclosure described herein, 2 μg of expression vectors (including positive and negative controls) in instances when AAV2 is not the viral vector employed. […]
HEK293 cells were transfected using AAV8-V5 vectors overexpressing Car10 and CA10, an empty vector and vehicle served as controls. […] Using the V5 tag, protein overexpression was detected following V5-Car10 and V5-CA10 vector transfection (FIG. 1B). […]

With `C=C[C@@]1(C)CC(=O)[C@]2(O)[C@@]3(C)[C@@H](O)CCC(C)(C)[C@@H]3[C@H](O)[C@H](OC(C)=O)[C@@]2(C)O1` [forskolin, reference compound] the “effect of forskolin on pITPR1 levels” value was “increases pITPR1 levels in a dose-dependent manner”.
